These are yes or no findings as the source states them, for the method shown. A result given as binding can be weak or reduced; the word gives no strength. For some of these results: Where a sequence is shown, tags or fusion partners need not be part of it. For some of these results: In cells and extracts the contact can be indirect. Each block holds one binder with its values, some of them ahead of it.
Key:
[1] = biological target: AT5G08450.1 HDC1 (Arabidopsis thaliana); assay: IP-MS
[2] = biological target: MOM2 (yeast two hybrid GAL4 fusion) (Arabidopsis thaliana); assay: yeast two hybrid
[3] = biological target: MOM2 (Arabidopsis thaliana); assay: IP-MS, pPHD1:PHD1-FLAG line

binding [1]: binds
B1: TRBIP1 (bait of the TRBIP1 IP-MS) (protein, not shown: small tags and cut ends)
chain: METNPCDMNQLDSDSHLPPRKRLLAGFKKFNSNGINGSSPSDFASSSSTSNSNGSSSASTNVQTHLGNLLSSPFNNDQSPEELVEATRSAAALAVKAAKAARAIANEKALISAKAIAAAKRALELVDSFPKEAMADCKERSPRKNKQKKHVPVELLYSKGQLRDEEDDLARRLHRAIDNTSYPRVLRTSEENGQRYKKQKKNKSVVEGGSSSIIVTGSMKDIAGVVDSDSSYEGLEIARSNRDEADSMLMMEKSGEESNSLVKRRGRVKLKKLPLSICNSRNQENGTSSASPLPVAQPQEDGGAITVIAGSSSWKCQDIKAPECVKQNKAVRS

binding [2]: binds
B2: PIAL2 (yeast two hybrid GAL4 fusion) (protein, not shown: large carriers)
chain: MSTAAAARPVAGTGLREKTAASLVNSFRLASVTQRLRYHIQDGAKVDPKEFQICCISFAKGIDFAIANNDIPKKVEEFPWLLKQLCRHGTDVYTKTALMVLMISVKHACHLGWFSDSESQELIALADEIRTCFGSSGSTSPGIKSPGSTFSQIMERFYPFVKLGHVLVSFEVKAGYTMLAHDFYISKNMPHSLQEKIRLFVAQTDNIDTSACISNPPEVSFLLNGKGVEKRVNIAMDTGPQLPTNVTAQLKYGTNLLQVMGNFKGNYIIIIAFTGLVVPPEKPVLKDYLQSGVIEASPDSDIIEGPSRVSLSCPISRKRIKLPVKGQLCKHLQCFDFSNYVHINMRNPTWRCPHCNQPVCYPDIRLDQNMAKILKDVEHNAADVIIDAGGTWKVTKNTGETPEPVREIIHDLEDPMSLLNSGPVVFDLTGDDDAELEVFGDNKVEDRKPCMSDAQGQSNNNNTNKHPSNDDYSSIFDISDVIALDPEILSALGNTAPQPHQASNTGTGQQYSNLSQIPMSIDPMPVPVPFSQTPSPRDRPATTSTVFTIPNPSPQYSQVHASPVTPTGTYLGRTTSPRWNQTYQSQAPPMTTPYTSRKVSVPVTSQSPANVSSFVQSQHVPRVLSQPNNYGVRGLTSSHASTSRQHPSGPTVQSVSRLSDLVDVDLTVPDTSNWRPRMRGSLVPGSHSTALDHMIIRPSQQSQTSTRLNSSQPVQTPSVQTSQAQSPFTTAAYRTETVLGNRNHPVPAPPGIVRPTGPTS

binding [3]: binds
B3: PHD1-FLAG (protein, not shown: small tags and cut ends)
chain: MSLHVKGPVCQTCGDIGFEEALVFCDSCMFESIHRYCLGITPIPFTEYITWICEDCDNSESDSDCNEVDQTVKKKKKSRNQPLVVLAEDNVLQEPLEGSKREESSCSRKPHELTCLDGNGESVLEAADSSSVPDHSSCTSKRKEVDQTANLGHILERSEKKKKKKKKKKSINHSPPVLAVEDHELQGTTNVVEPVEVSSSSPTKETMESKRQESSDSRKPHELTCLVGDSETANSSSVPEHNSCAVKKRKLSSGNKQIQLADGSSSCRVAESNMPLTLTSRNYRAQPIKIPIWRGLMSVKGGNSCTMDGIVAHVSSLACPKVHETASSLKGRLSAEILPRLEVWPKTFLKNGGPKDESVALFFFPSSESNDEKVFDSLVDKMKKNDSAMRCVLNDAELLLFTSYMLPKDSWTFNSKYYLWGVFKPRQTSRY

binding [1]: binds
B4: TRBIP2 (bait of the TRBIP2 IP-MS) (protein, not shown: small tags and cut ends)
chain: MATNACLESDSLLPPRKRLLAGFKNQNSRISNESPSPPFASSSSSTTTSNGSSASAVVHTHHLDHLLNDQTRSPEELAQASKATAALAVKVAKAARATANEKAIIASKAVAAAKNALELFASFPAAETVSCKEPRLIRAINNSPRVLTDCSGHRNKKQKTLTSTMNDGNDVAGVVDSDDGTRVNGKLLLCDNTLKEKTEEESSSLGKRRGRVKLPLSMCAYKDQENGITLEENNLSVSKSEGYNGGVAQVIERPSWKCQDLKSPECVKQNKVVRS

From patent US20250042956A1
